# In patent US20160257744A1:
# Sequences of proteins named here, by UniProt entry; tags and fusion partners are left off. Residues count along the entry.
# UniProt P05113, residues 20-134: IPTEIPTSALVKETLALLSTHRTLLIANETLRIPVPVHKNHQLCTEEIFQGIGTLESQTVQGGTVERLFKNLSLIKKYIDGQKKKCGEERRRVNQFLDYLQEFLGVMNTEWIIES
# Results are given in words; binding and its absence hold for the method and conditions named. Some binding calls cover weakened binding; strength is not graded here.
# Experiments:
# [1] = biological target: interleukin 5 (IL5) (human) (UniProt P05113); assay: ELISA, IgG1 at 250 nM on coated antigen (FIG. 5)
# [2] = biological target: interleukin 5 (IL5) (human) (UniProt P05113); assay: ELISA: human IgG1 at 250 nM on protein-coated wells, anti-Fc-HRP
# [3] = biological target: interleukin 5 (IL5) (human) (UniProt P05113); assay: blocking ELISA: biotinylated IL5 receptor α binding to immobilized IL5 in the presence of IgG (0, 10, 50 nM), streptavidin-HRP
# [4] = biological target: interleukin 5 (IL5) (human) (UniProt P05113); assay: ELISA, IgG at 100 nM on immobilized antigen, compared to E7 (FIG. 8A)
# [5] = biological target: interleukin 5 (IL5) (human) (UniProt P05113); assay: ELISA: IgG at 100 nM on immobilized protein, anti-IgG-HRP [panel A]
# [6] = biological target: interleukin 5 (IL5) (human) (UniProt P05113); assay: blocking ELISA: biotinylated IL5 binding to coated IL5 receptor in the presence of 50 nM antibody or PBS, streptavidin-HRP [panel B]
# [7] = biological target: interleukin 5 (IL5) (human) (UniProt P05113); assay: phage clone screening
# [8] = biological target: interleukin 5 (IL5) (human) (UniProt P05113); assay: phage binding competition assay, interleukin in solution against immobilized interleukin
binder,measurement,setting,value
"B1 as human IgG1 (antibody, V domains shown) VH: EVQLVQSGAEVKKPGASVKVSCKASGYTFTDYLMHWVRQAPGQGLEWIAVIVSITGRTYYADDFKGRVTITRDTSTSTAYLELSSLRSEDTAVYYCARGGIFYGMDYWGQGTLVTVSS VL: DIQMTQSPSSLSASVGDRVTITCKASQSVINDAAWYQQKPGKAPKLLIYYTSHRYTGVPSRFSGSGSGTDFTLTISSLQEDFATYYCQQDYTPFPLTFGQGTKVEIKR",binding,[1],binds
same,binding,[2],binds
same,binding,[3],binds
"1C60, affinity-matured variant of E7, as IgG (antibody, V domains shown) VH: EVQLVQSGAEVKKPGASVKVSCKASGYTFTDYFIHWVRQAPGQGLEWIAGIVYDATGFTVYADDFKGRVTITRDTSTSTAYLELSSLRSEDTAVYYCARGGIFYGMDYWGQGTLVTVSS VL: DIQMTQSPSSLSASVGDRVTITCKASQSVINDAAWYQQKPGKAPKLLIYYTSHRYTGVPSRFSGSGSGTDFTLTISSLQEDFATYYCQQDYKHPWTFGQGTKVEIKR",binding,[4],binds
same,binding,[5],binds
same,binding,[6],binds
"B1, anti-IL4/IL5 dual specific variant of hu19C11, Fab displayed on phage (Fab, V domains shown) VH: EVQLVQSGAEVKKPGASVKVSCKASGYTFTDYLMHWVRQAPGQGLEWIAVIVSITGRTYYADDFKGRVTITRDTSTSTAYLELSSLRSEDTAVYYCARGGIFYGMDYWGQGTLVTVSS VL: DIQMTQSPSSLSASVGDRVTITCKASQSVINDAAWYQQKPGKAPKLLIYYTSHRYTGVPSRFSGSGSGTDFTLTISSLQEDFATYYCQQDYTPFPLTFGQGTKVEIKR",binding,[7],binds
same,binding,[8],binds
